Measured values from PubChem BioAssay AID485298 (National Center for Advancing Translational Sciences (NCATS), 2010).
In all, about 320,000 compounds went through this assay and about 740 (0.23%) were called active. Inconclusive means that the source gave no clear call. Such entries were picked first, then a sample of the others. Calls follow the shape of the dose curve; as a rule, active = well fitted activation curve with a large enough effect; inconclusive = small, poorly fitted or top-dose-only effect; inactive = no such curve, though single readings can be large or run the other way. Potencies beside an inconclusive call are fits to weak or partial responses and may not hold up.

test: qHTS Assay for Small Molecule Inhibitors of Mitochondrial Division or Activators of Mitochondrial Fusion; also: nearly all actives have a fitted effect of over 45% in size;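 as to growth rescue (activation): temperature-sensitive fusion mutants such as fzo1-1 at 37 °C on non-fermentable ethanol glycerol medium; % of control where 0% means no effect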; settings: S. cerevisiae fusion-defective mutant growth rescue, CellTiterGlo 48 h; growth rescue (activation): at 46.1 µM (top of the series) unless noted
How it was run: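 Compounds are tested for their ability to restore growth of mitochondrial fusion-defective yeast strains at non-permissive 37C in YPEG medium over 48 hours. Viability is quantified by luciferase luminescence.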
Potency is read from the fitted curve at half-maximal effect.

SMILES | Potency | growth rescue (activation)
C=CCn1ccc(O)c(Cc2ccc(Cl)cc2)c1=O | inconclusive: 1.58 µM [activator, full curve] | –
CCCCn1nc(C(=O)Nc2nc3c(s2)CCCC3)c2ccccc2c1=O | inconclusive: 17.8 µM [activator, partial curve] | –
O=c1c2ccccc2nc(N/N=C/c2ccc(O)cc2)n1O | inactive | –
COCCOC(=O)c1c(C)oc2ccc(OC(=O)c3ccco3)cc12 | inconclusive: 35.5 µM [activator, single point] | –
Cc1ccc(-c2nnc(SCC(=O)N3CCOCC3)nc2-c2ccc(C)cc2)cc1 | inactive | –
COC(=O)C1CCN(C(=O)COC(=O)Cn2cnnn2)CC1 | inactive | –
c1ccc2c(CSc3ncnc4nc[nH]c34)cccc2c1 | inconclusive: 10 µM [activator, partial curve] | –
CC(C)CCNC(=O)c1cc(-c2ccncc2)nc2ccc(S(=O)(=O)N3CCOCC3)cc12 | inconclusive: 3.98 µM [activator, partial curve] | –
O=C(NCc1ccc(Cl)cc1)c1ccccc1CCc1ccccc1 | inconclusive: 14.1 µM [activator, single point] | –
COc1ccc(C2CC(=O)N(C)c3ccccc3S2)cc1OC (stereo not drawn) | inconclusive: 17.8 µM [activator, single point] | –
CC1(C)Cc2c(C#N)c(SCCOc3ccccc3)nc(N3CCOCC3)c2CO1 | inconclusive: 12.6 µM [activator, partial curve] | –
CC1CCCC(NC(=O)CCNS(=O)(=O)c2ccc(Br)cc2)C1C (stereo not drawn) | inactive | –
COc1cccc(C(=O)NC2CCN(C(=O)N3c4ccccc4Sc4ccccc43)CC2)c1 | inconclusive: 12.6 µM [activator, partial curve] | –
O=C(Nc1ccc2c(c1)CCCN2C(=O)c1cccs1)c1ccccc1 | inactive | –
CCOc1ccccc1CNC(=O)c1ccc2nc(N3CCOCC3)sc2c1 | inactive | –
COc1ccc(Cl)cc1NC(=O)COC(=O)C(CC(C)C)N1C(=O)C2CC=CCC2C1=O (stereo not drawn) | inconclusive: 14.1 µM [activator, single point] | –
COc1ccc(-c2cc(C3CC3)nc3sc(C#N)c(N)c23)cc1 | active: 12.6 µM | –
Cc1ccc(C2CC2C(=O)NNC(=S)Nc2ccc(Cl)cc2)cc1 (stereo not drawn) | inconclusive: 20 µM [activator, partial curve] | –
CC1CC(=O)C2=C(C1)Nc1ccccc1SC2c1ccc(F)cc1 (stereo not drawn) | inconclusive: 35.5 µM [activator, single point] | –
O=C(NCCN1CCOCC1)c1ccc2c(c1)N(Cc1ccccc1F)C(=O)c1ccccc1S2 | inconclusive: 28.2 µM [activator, single point] | –
COn1c(SC2CCCCC2)nc2ccccc2c1=O | inconclusive: 11.2 µM [activator, partial curve] | –
CC(=Nc1cccc(O)c1)c1sc2ccccc2c1O | inconclusive: 17.8 µM [activator, single point] | –
O=S1(=O)CCC(NC(=S)N2CCOCC2)C1 (stereo not drawn) | inconclusive: 3.55 µM [activator, single point] | –

SMILES | Potency | growth rescue (activation)
CC(=O)c1sc(N/N=C\c2cccc(Br)c2)nc1C | inconclusive: 31.6 µM [activator, single point] | –
O=C(c1cc2ccccc2o1)N(Cc1ccco1)Cc1cccs1 | inconclusive: 15.8 µM [activator, single point] | –
CCCc1nc2ccccc2c(C(=O)OCC(=O)N2CCc3ccccc32)c1CC | inconclusive: 15.8 µM [activator, partial curve] | –
CCOC(=O)[C@H]1[C@H]2COc3ccc(C)cc3[C@@H]2N2C(=O)c3ccc(C)cc3NC(=O)[C@@]12C | inconclusive: 35.5 µM [activator, single point] | –
Cc1ccc(Nc2c([N+](=O)[O-])c(=O)n(C)c3ccccc23)cc1 | inactive | –
CCCCNC(=O)/C(C#N)=C/c1ccc(F)cc1F | inconclusive: 17.8 µM [activator, partial curve] | –
Oc1ccc(/C=N/Nc2ccc(Cl)nn2)c(O)c1O | inactive | –
Cc1c(Cl)c([N+](=O)[O-])nn1CCCC(=O)N(Cc1ccccc1)Cc1ccccc1 | inconclusive: 31.6 µM [activator, single point] | –
COc1ccccc1NC(=O)N(Cc1ccco1)Cc1cc2c(C)ccc(C)c2[nH]c1=O | inconclusive: 14.1 µM [activator, single point] | –
Cc1ccc(C(=O)NCC(c2ccco2)N2CCc3ccccc32)cc1C (stereo not drawn) | inconclusive: 15.8 µM [activator, single point] | –
CCOC(=O)c1cccc(-c2c(-c3ccccc3)ncc3cc(OC)c(OC)cc23)c1 | inconclusive: 20 µM [activator, single point] | –
CC(=O)Nc1ccccc1OCC(=O)NCC(F)(F)F | inactive | –
Cc1ccccc1Cn1c(=O)n(CCCC(=O)NCc2ccco2)c(=O)c2ccccc21 | inactive | –
CC(=O)SC1CC2=CC(=O)CC[C@]2(C)C2CC[C@@]3(C)C(CC[C@@]34CCC(=O)O4)C12 (stereo partly drawn) | inconclusive: 20.6 µM [activator, single point] | –
O=C(Nc1nccs1)c1cc(-c2ccccc2)nc2ccccc12 | inconclusive: 22.4 µM [activator, single point] | –
Cc1onc(-c2ccccc2Cl)c1C(=O)Nc1nnc(-c2ccc(F)cc2)s1 | inconclusive: 20 µM [activator, single point] | –
COc1ccc(CCNC(=O)c2cc(C3CC3)nc3c2cnn3C(C)C)cc1 | inconclusive: 35.5 µM [activator, single point] | –
COC(=O)C1CCN(C(=O)C2CCN(C(=O)[C@@H](NS(=O)(=O)c3ccc(C)cc3)C(C)C)CC2)CC1 | inconclusive: 3.55 µM [activator, single point] | –
Cc1ccc(Nc2ncccc2C(N)=O)cc1[N+](=O)[O-] | inconclusive: 35.5 µM [activator, single point] | –
COc1cc(OC)cc(-n2nc(C(=O)N3CC(C)CC(C)C3)c3ccccc3c2=O)c1 (stereo not drawn) | inconclusive: 11.2 µM [activator, partial curve] | –
CCOc1ccc(Cl)cc1CSc1n[nH]c(CC)n1 | inconclusive: 17.8 µM [activator, single point] | –
O=C(O)/C=C\c1ccccc1Oc1cccc(Cl)c1 | inconclusive: 6.31 µM [activator, partial curve] | –
O=c1c2ccccc2n(Cc2ccc(F)cc2)c(=O)n1C1CCCC1 | inconclusive: 7.94 µM [activator, partial curve] | –

Quoted at random: 3 compounds from above
SMILES | Potency | growth rescue (activation)
O=C(O)/C=C\c1ccccc1Oc1cccc(Cl)c1 | inconclusive: 6.31 µM [activator, partial curve] | –
CCCCNC(=O)/C(C#N)=C/c1ccc(F)cc1F | inconclusive: 17.8 µM [activator, partial curve] | –
CCOC(=O)c1cccc(-c2c(-c3ccccc3)ncc3cc(OC)c(OC)cc23)c1 | inconclusive: 20 µM [activator, single point] | –

Next part:

SMILES | Potency | growth rescue (activation)
Cc1nn(C)c(C)c1NC(=O)CCl | inactive | –
COC(=O)c1sccc1NC(=O)CN1CCN(c2ccc(F)cc2)CC1 | inconclusive: 14.1 µM [activator, single point] | –
O=C(/C=C/c1ccco1)Nc1ccc2nn(-c3ccccc3)nc2c1 | inconclusive: 11.2 µM [activator, partial curve] | –
COc1cc2c(cc1OC)CN(C(=O)/C=C/c1ccccc1[N+](=O)[O-])CC2 | inconclusive: 14.1 µM [activator, single point] | –
CC(C)N(C(=O)c1ccc(C(=O)Nc2ccc([N+](=O)[O-])cc2)cc1)C(C)C | inactive | –
CC1CCc2c(sc3ncnc(SC(C)C(=O)NCC4CCCO4)c23)C1 (stereo not drawn) | inconclusive: 35.5 µM [activator, single point] | –
CC1CN(CCOc2cccc(Oc3ccccc3)c2)CC(C)O1 (stereo not drawn) | inconclusive: 20 µM [activator, partial curve] | –
CCCS(=O)(=O)n1nc(-c2ccc(Br)cc2)cc1N | inconclusive: 31.6 µM [activator, single point] | –
CCC1CCCCN1C(=O)CSc1nc2ncccc2[nH]1 (stereo not drawn) | inconclusive: 2.82 µM [activator, full curve, poor fit] | –
Cn1nc(-c2ccccc2)cc1NC(=O)c1ccc(Cl)cc1 | inconclusive: 11.2 µM [activator, partial curve] | –
CCOc1ccc(N(CC(=O)NC2CCCCC2)C(=O)CCC(=O)Nc2nc(C)cs2)cc1 | inactive | –
COc1ccc(-c2noc(N3CCC(C(=O)NC(C)c4ccccc4)CC3)n2)cc1 (stereo not drawn) | inactive | –
O=C(Nc1ccccc1N1CCCC1)c1cc2ccccc2o1 | inconclusive: 8.91 µM [activator, single point] | –
O=C(O)C1CCN(c2ccc(S(=O)(=O)N3CCC(C(=O)O)CC3)cc2[N+](=O)[O-])CC1 | inconclusive: 3.16 µM [activator, partial curve] | –
CCn1c(N)c(C(=O)NCc2ccco2)sc1=S | inactive | –
Cc1ccc(CN2CCN(/N=C\C(Br)=C\c3ccccc3)CC2)cc1 | inconclusive: 31.6 µM [activator, single point] | –
CC(C)(C)NC(=O)NC(=O)CN1C(=O)NC(c2ccccc2)(c2ccccc2)C1=O | inactive | –
COc1ccc([C@]23Cc4cc(C#N)ccc4[C@H](O2)c2c(cc(C)n(Cc4ccccc4)c2=O)O3)cc1 | – | inactive: -1.81% [at 9.22 µM]
CSc1nc2ccccc2c(=O)n1C1CCCCC1 | inconclusive: 6.31 µM [activator, single point] | –
Cc1cc(C)cc(C(=O)NC(=S)Nc2ccc(-c3cc4ccccc4oc3=O)cc2)c1 | inactive | –
Fc1cc(F)cc(Nc2nc(Cl)nc(NC3CCCC3)n2)c1 | inconclusive: 22.4 µM [activator, single point] | –
Nc1nc(Nc2cccc(Cl)c2)nc(NCc2ccco2)c1[N+](=O)[O-] | inconclusive: 12.6 µM [activator, partial curve] | –
